Most of the targets with a hit are listed elsewhere, so they are rarer here than in the full data. The data scatter; read single values as rough. The list shows a part of the results, in another mix than the full data.
Compound: COC(=O)/C=C/c1ccccc1 [methyl cinnamate]
Experiment: log2 ratio of iodoacetamide-alkyne labeling of the cysteine site, DMSO over compound (competition); higher = stronger covalent engagement of the cysteine by the compound, active = 1 or more
Conditions: 500 µM; treatment time 1 h; system: HEK293T cell lysate
Outline: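 For each cysteine, the log2 competition ratio is mean control-channel reporter intensity over mean compound-channel reporter intensity. HEK293T lysate (2 mg/mL) was exposed to vehicle or electrophile (500 µM, 1 h, ambient temperature), labelled with iodoacetamide alkyne (1 h), clicked to sCIP-TMT reagents, digested overnight with trypsin at 37 °C, streptavidin-enriched and analysed by Orbitrap Eclipse LC-MS/MS with FAIMS and FragPipe. Cysteines quantified in only one of three replicates, each with duplicate channels, were excluded.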

Chains of the proteins cited; added tags and fusions are not shown. Lines headed by an entry give the natural chain unless they say otherwise; changes in a name come on top.
UniProt Q92888: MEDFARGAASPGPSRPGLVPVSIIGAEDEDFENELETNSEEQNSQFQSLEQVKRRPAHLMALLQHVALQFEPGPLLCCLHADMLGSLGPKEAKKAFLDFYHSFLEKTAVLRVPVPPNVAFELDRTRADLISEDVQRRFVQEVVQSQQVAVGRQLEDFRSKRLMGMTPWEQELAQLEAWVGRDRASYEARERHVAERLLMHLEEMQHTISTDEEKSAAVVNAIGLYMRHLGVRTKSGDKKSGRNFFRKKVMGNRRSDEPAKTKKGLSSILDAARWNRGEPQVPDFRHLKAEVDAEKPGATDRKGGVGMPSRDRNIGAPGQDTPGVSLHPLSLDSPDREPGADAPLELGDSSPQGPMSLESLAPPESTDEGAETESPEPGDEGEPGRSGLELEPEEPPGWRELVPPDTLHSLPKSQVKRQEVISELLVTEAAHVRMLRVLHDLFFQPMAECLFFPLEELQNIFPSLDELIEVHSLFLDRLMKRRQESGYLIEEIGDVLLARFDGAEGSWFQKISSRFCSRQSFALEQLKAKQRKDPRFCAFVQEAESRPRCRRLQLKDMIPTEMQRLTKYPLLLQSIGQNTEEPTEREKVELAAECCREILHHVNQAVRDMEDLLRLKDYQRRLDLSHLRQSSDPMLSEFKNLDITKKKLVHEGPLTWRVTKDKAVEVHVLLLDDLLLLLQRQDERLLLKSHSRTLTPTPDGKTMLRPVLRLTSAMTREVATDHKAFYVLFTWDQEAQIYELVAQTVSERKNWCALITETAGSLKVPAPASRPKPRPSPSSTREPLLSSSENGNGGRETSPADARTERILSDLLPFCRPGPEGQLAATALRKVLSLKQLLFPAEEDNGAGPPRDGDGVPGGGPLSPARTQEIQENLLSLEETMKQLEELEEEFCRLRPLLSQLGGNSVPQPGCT
UniProt Q96HE7: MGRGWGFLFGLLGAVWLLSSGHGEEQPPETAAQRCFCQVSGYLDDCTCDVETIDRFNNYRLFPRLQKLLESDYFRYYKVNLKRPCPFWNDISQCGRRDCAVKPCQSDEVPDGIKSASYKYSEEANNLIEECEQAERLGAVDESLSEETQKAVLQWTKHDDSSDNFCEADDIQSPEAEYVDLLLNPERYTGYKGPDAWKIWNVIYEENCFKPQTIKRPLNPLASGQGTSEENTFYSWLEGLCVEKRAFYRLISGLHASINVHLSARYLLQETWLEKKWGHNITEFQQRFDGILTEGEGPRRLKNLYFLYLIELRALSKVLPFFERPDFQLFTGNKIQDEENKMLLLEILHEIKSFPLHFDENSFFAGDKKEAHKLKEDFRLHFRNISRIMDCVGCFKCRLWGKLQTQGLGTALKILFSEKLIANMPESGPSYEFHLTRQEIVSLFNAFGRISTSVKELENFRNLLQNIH
UniProt Q96GX2: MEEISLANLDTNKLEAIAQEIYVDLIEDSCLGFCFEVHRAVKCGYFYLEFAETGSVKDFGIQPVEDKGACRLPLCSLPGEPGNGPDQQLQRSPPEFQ
UniProt Q92878: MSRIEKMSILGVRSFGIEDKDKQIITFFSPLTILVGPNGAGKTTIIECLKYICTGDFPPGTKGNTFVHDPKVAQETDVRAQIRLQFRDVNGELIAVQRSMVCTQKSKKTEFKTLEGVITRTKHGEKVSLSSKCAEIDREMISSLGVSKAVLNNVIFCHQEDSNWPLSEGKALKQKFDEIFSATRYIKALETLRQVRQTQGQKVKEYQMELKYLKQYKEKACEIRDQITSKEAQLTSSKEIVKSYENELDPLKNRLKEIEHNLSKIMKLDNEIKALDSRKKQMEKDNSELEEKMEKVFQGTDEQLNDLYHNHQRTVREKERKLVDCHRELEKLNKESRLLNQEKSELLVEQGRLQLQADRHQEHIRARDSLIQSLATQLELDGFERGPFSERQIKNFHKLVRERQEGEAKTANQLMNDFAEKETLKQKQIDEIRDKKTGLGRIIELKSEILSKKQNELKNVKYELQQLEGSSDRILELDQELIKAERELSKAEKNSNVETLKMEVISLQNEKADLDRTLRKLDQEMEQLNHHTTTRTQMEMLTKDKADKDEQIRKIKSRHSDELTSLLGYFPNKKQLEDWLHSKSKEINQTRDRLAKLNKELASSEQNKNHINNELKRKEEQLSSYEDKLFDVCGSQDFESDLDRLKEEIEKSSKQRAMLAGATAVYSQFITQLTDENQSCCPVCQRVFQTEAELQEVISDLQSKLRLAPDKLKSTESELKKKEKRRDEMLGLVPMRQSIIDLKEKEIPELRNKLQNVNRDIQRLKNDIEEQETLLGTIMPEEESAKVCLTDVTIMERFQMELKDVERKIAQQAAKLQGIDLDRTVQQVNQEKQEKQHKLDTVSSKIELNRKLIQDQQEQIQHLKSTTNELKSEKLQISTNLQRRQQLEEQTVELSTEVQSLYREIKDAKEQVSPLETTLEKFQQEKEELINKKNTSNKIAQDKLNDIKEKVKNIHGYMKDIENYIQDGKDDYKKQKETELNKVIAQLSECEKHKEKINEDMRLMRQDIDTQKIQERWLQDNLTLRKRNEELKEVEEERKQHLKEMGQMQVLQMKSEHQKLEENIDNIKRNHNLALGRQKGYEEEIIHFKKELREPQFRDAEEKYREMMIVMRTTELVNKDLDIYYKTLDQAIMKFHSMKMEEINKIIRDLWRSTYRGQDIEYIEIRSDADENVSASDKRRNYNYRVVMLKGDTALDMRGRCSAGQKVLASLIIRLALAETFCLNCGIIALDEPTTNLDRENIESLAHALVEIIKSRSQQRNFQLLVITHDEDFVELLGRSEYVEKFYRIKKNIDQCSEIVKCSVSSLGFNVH
UniProt Q92900: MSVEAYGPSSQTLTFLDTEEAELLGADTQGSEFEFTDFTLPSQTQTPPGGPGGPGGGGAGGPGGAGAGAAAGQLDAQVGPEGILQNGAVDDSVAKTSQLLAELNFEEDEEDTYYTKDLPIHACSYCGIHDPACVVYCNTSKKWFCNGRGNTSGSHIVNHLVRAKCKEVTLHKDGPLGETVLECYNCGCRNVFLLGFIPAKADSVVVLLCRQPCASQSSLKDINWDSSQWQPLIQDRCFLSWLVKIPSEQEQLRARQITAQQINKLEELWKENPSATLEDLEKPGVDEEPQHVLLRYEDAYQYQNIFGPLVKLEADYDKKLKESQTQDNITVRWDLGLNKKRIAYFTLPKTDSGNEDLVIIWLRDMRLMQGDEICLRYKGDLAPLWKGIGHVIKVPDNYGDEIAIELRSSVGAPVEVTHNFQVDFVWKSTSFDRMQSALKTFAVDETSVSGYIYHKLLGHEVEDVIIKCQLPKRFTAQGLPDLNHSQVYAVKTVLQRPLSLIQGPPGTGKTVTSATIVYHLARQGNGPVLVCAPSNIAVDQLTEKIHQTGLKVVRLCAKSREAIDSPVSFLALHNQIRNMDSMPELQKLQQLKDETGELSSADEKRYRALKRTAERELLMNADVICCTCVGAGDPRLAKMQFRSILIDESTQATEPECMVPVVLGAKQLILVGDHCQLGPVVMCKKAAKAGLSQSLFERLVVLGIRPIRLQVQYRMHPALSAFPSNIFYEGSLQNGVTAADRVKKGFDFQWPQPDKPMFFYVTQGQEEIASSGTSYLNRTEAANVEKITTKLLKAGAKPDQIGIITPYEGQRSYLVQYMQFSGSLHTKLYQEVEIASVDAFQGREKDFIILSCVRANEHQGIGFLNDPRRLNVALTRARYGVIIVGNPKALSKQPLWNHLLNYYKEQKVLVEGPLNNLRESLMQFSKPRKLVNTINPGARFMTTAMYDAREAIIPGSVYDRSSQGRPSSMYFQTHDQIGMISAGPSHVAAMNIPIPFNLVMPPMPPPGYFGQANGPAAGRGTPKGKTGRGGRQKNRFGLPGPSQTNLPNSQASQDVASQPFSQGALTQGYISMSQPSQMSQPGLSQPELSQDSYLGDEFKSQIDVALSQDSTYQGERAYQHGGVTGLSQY
UniProt Q92688: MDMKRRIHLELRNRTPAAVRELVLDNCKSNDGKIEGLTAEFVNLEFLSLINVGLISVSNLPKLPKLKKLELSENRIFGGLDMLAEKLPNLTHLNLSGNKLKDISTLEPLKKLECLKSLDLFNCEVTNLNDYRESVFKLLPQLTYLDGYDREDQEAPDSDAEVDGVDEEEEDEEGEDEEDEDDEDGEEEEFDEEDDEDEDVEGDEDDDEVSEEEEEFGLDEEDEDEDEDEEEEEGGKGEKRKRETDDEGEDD
UniProt Q96F63: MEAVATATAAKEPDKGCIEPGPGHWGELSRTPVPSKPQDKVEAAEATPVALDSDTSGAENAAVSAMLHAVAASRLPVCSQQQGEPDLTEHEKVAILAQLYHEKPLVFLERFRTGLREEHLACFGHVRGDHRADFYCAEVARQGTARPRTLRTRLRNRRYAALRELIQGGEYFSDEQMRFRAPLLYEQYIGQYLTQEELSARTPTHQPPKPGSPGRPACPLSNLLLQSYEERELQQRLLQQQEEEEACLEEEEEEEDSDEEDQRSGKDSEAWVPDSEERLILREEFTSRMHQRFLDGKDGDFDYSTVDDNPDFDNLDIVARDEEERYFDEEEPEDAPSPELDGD
UniProt Q92547, whole entry: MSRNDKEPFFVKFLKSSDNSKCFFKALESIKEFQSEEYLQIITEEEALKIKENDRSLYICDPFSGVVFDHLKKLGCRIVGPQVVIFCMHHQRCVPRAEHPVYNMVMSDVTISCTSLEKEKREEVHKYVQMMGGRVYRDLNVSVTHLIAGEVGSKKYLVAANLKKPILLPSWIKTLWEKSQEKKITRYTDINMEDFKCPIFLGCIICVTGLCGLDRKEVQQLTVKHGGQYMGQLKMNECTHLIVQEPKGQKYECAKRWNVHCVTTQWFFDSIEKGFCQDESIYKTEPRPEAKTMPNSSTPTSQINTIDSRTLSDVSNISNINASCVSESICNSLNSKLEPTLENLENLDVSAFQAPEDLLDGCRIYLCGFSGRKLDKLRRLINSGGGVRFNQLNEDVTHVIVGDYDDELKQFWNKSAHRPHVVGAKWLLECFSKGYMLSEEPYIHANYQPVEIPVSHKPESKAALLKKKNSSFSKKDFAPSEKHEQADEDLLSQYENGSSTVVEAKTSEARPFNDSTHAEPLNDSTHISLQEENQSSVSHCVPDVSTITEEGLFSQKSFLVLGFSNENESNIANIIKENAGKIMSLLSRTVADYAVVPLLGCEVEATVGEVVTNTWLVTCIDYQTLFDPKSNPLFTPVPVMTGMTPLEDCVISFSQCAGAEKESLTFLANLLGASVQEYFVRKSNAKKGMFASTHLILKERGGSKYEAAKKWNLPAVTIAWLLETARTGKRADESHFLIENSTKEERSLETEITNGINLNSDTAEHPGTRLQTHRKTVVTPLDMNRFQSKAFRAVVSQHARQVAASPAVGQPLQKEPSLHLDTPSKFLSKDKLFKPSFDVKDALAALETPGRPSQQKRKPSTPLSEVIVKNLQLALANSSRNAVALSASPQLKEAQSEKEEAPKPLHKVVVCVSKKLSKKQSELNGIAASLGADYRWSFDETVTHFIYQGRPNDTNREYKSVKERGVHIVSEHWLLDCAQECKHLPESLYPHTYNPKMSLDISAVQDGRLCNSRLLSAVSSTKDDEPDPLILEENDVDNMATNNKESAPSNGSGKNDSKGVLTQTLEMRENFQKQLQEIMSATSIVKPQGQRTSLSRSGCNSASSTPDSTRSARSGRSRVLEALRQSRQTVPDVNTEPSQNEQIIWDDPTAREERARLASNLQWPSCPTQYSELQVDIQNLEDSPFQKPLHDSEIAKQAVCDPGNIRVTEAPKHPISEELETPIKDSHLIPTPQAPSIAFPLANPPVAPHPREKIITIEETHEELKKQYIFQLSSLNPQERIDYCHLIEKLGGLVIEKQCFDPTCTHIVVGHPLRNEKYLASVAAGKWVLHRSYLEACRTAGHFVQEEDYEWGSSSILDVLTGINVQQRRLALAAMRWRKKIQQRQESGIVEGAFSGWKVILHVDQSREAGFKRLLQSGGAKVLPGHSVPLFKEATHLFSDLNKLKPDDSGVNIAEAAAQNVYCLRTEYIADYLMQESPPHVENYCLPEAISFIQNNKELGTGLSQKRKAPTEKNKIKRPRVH
UniProt Q92564: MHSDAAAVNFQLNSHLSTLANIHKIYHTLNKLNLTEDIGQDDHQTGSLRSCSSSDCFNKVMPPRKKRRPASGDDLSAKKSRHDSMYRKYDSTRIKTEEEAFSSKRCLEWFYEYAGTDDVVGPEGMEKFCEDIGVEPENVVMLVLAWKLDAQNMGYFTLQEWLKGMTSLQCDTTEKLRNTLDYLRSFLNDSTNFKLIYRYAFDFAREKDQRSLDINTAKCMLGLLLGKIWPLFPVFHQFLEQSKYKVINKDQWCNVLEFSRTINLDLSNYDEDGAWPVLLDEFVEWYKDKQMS

Target	log2 ratio of iodoacetamide-alkyne labeling
USP7 C510 (UniProt Q93009)	inactive: 0.173
UniProt Q92841_C447	inactive: -0.0626
UniProt Q92888_C911	inactive: 0.274
UniProt Q96HE7_C166	inactive: 0.33
ATXN7L3B C75 (UniProt Q96GX2)	inactive: 0.114
GBF1 C1414 (UniProt Q92538)	inactive: -0.0373
UniProt Q92841_C319	inactive: 0.127
RAD50 C633 (UniProt Q92878)	inactive: 0.239
TNPO1 C683 (UniProt Q92973)	inactive: 0.152
KHSRP C296 (UniProt Q92945)	inactive: -0.00617
AKT1S1 C61 (UniProt Q96B36)	inactive: 0.0696
UPF1 C683 (UniProt Q92900)	inactive: 0.00632
SMARCD1 C492 (UniProt Q96GM5)	inactive: 0.126
UniProt Q96EY4_C162	inactive: 0.258
UniProt Q96EY5_C33	inactive: 0.196
EFHD2 C172 (UniProt Q96C19)	inactive: 0.092
ANP32B C123 (UniProt Q92688)	inactive: 0.136
UniProt Q96GS4_C176	inactive: 0.314
ZNF592 C1221 (UniProt Q92610)	inactive: 0.223
LRRC59 C277 (UniProt Q96AG4)	inactive: -0.0337
SMARCE1 C274 (UniProt Q969G3)	inactive: 0.0768
LIN37 C119 (UniProt Q96GY3)	inactive: 0.083
PHKB C299 (UniProt Q93100)	inactive: 0.202
UniProt Q92879_C150	inactive: 0.00913
ARPC1A C13 (UniProt Q92747)	inactive: 0.252

Laid out differently: results already given
KHSRP C296 (UniProt Q92945)
  log2 ratio of iodoacetamide-alkyne labeling: inactive: -0.00617
AKT1S1 C61 (UniProt Q96B36)
  log2 ratio of iodoacetamide-alkyne labeling: inactive: 0.0696

(further entries)

Target	log2 ratio of iodoacetamide-alkyne labeling
SIPA1 C732 (UniProt Q96FS4)	inactive: 0.117
TSR2 C17 (UniProt Q969E8)	inactive: 0.0903
PDLIM5 C213 (UniProt Q96HC4)	inactive: 0.373
DPF2 C295 (UniProt Q92785)	inactive: 0.0738
TONSL C283 (UniProt Q96HA7)	inactive: -0.032
GLMN C406 (UniProt Q92990)	inactive: -0.145
HDAC2 C417 (UniProt Q92769)	inactive: 0.308
CCDC97 C136 (UniProt Q96F63)	inactive: 0.139
TOPBP1 C1166 (UniProt Q92547)	inactive: -0.0356
APIP C147 (UniProt Q96GX9)	inactive: -0.0352
ARHGEF2 C715 (UniProt Q92974)	inactive: 0.177
RAD50 C133 (UniProt Q92878)	inactive: 0.204
DLG3 C519 (UniProt Q92796)	inactive: 0.0943
ACD C406 (UniProt Q96AP0)	inactive: 0.251
Sirt1 C380 (UniProt Q96EB6)	inactive: 0.512
DVL3 C92 (UniProt Q92997)	inactive: 0.202
USP9X C1808 (UniProt Q93008)	inactive: -0.37
DHX38 C20 (UniProt Q92620)	inactive: 0.345
UniProt Q96EY5_C231	inactive: 0.38
WBP2 C80 (UniProt Q969T9)	inactive: 0.161
TMCO6 C57 (UniProt Q96DC7)	inactive: 0.13
UniProt Q96GC9_C8	inactive: 0.21
SNX19 C277 (UniProt Q92543)	inactive: 0.0209
CCDC97 C17 (UniProt Q96F63)	inactive: 0.233
UniProt Q96AX9_C323	inactive: 0.359

A stretch of the results above, as a working copy:
Target	log2 ratio of iodoacetamide-alkyne labeling
SNX19 C277 (UniProt Q92543)	inactive: 0.0209
CCDC97 C17 (UniProt Q96F63)	inactive: 0.233
UniProt Q96AX9_C323	inactive: 0.359

Later entries.

Target	log2 ratio of iodoacetamide-alkyne labeling
LPP C364 (UniProt Q93052)	inactive: 0.26
UniProt Q96FZ2_C131	inactive: 0.26
ZC3HAV1L C7 (UniProt Q96H79)	inactive: -0.158
OTUB1 C91 (UniProt Q96FW1)	inactive: 0.0768
AKT1S1 C44 (UniProt Q96B36)	inactive: 0.21
MED12 C83 (UniProt Q93074)	inactive: 0.406
UniProt Q92616_C1482	inactive: 0.0848
SYMPK C848 (UniProt Q92797)	inactive: 0.14
UBE2E3 C81 (UniProt Q969T4)	inactive: 0.409
SECISBP2L C544 (UniProt Q93073)	inactive: 0.178
ZC3HAV1L C125 (UniProt Q96H79)	inactive: 0.0478
LPP C524 (UniProt Q93052)	inactive: 0.149
HSPH1 C650 (UniProt Q92598)	inactive: 0.0731
DVL3 C69 (UniProt Q92997)	inactive: 0.138
RPL36AL C77 (UniProt Q969Q0)	inactive: 0.108
UBXN4 C186 (UniProt Q92575)	inactive: 0.457
PHF3 C1616 (UniProt Q92576)	inactive: 0.327
DPF2 C53 (UniProt Q92785)	inactive: -0.0418
ARHGEF2 C335 (UniProt Q92974)	inactive: 0.0596
DTNBP1 C302 (UniProt Q96EV8)	inactive: 0.16
MRPS27 C49 (UniProt Q92552)	inactive: 0.0975
UniProt Q96FZ5_C12	inactive: 0.172
TUBGCP3 C497 (UniProt Q96CW5)	inactive: 0.0455
GBF1 C1272 (UniProt Q92538)	inactive: 0.0974
DCUN1D4 C253 (UniProt Q92564)	inactive: 0.195

Reference: the supplement of paper PMC11006884
